# Percent effect of library compounds

Mtb glucose medium: 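Whole-cell growth test on Mycobacterium tuberculosis, read after 3 days in glucose-containing 7H9 medium; the read-out is not stated. Concentration: 50 µM. Direction is inferred from retests: higher values go with more growth inhibition. About 69,000 compounds were tested under these conditions; 1.1% (about 760) showed 50% or more at least once.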
Mtb cholesterol medium: 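Whole-cell growth test on Mycobacterium tuberculosis, read after 4 days in a medium based on cholesterol and the lipid DPPC; the read-out is not stated. Tested at 50 µM. The record gives no direction; compounds that gave an IC50 in retests scored well above the rest, so higher reads as more growth inhibition. Of about 69,000 compounds tested this way, about 370 (0.54%) reached 50% or more in at least one test.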

The filed quantity is “Percent Effect” (%). The controls that fix the scale are not given in the record; negative values are as filed. Compounds were drawn at random from those tested, without regard to their results. Two or more numbers in one place are separate tests of the same structure; such repeats can differ widely.

| structure | Mtb glucose medium | Mtb cholesterol medium |
|---|---|---|
| `CCN1CCN(C2CCN(Cc3nc4ccccc4o3)CC2)C1=O` | -9.624% | -37.28% |
| `Cc1nc(C2CCCN(C(=O)c3cnn(C(C)(C)C)c3)C2)no1` (stereo not given) | -53.93% | -30.85% |
| `Cc1nc(CN2CCCC(N(C)CCc3cccs3)C2)no1` (stereo not given) | -0.508% & -7.011% | -23.83% |
| `c1cc2cc[nH]c2c(CC2CN(Cc3cncs3)C2)n1` | -6.029% | -11.14% |
| `COCCN1CCN(C(=O)C(c2cccc(F)c2)N(C)C)CC1` (stereo not given) | -2.577% & -27.66% | -17.56% |
| `Cc1cc(C)c(CNC(=O)NCC2CCCN2C)c(=O)[nH]1` (stereo not given) | -31.25% | -2.615% |
| `Cl.O=C(CN1CCC[C@@H]1C(=O)O)NCCOc1cccc(C(F)(F)F)c1` | 16.58% | 19.48% |
| `[H][C@@]12CCCO[C@]1([H])[C@H](OCC1CCOCC1)CN2C(=O)c1occc1C` | 28.01% | 13.89% |
| `CCCc1nc(CNC(=O)Cc2csc(C)n2)cs1` | 8.958% | -7.549% |
| `CCOc1ccc(Cl)cc1C(C(=O)O)N1CCOCC1` (stereo not given) | -30.91% | -0.009507% |
| `Cc1cccc(CN2CCc3nnc(CN4CCCCC4)n3CC2)n1.O=C(O)C(F)(F)F.O=C(O)C(F)(F)F` | 5.485% | 7.067% |
| `CCNc1ncc(C(=O)N[C@@H](C)[C@H](O)c2ccccc2)cn1` | 37.01% | 21.19% |
| `CC(=O)Nc1nc(C(=O)NCc2ccc(N3CCCC3)nc2)cs1` | -9.439% | -27.13% |
| `Cc1ccc(C(=O)NCCNCC2CNc3ccnn3C2)cc1F` (stereo not given) | -14.28% & -11.14% | -7.396% |
| `O=C(Cn1cncn1)NCC1(O)CCCc2ccccc21` (stereo not given) | -24.8% | -13.29% |
| `Clc1ccc(CN2CCN(Cn3nccc3-c3cccnc3)CC2)s1` | -49.19% | 30.4% |
| `Cl.O=C(O)C1(Cc2cccc(-c3cccs3)c2)CCCNC1` (stereo not given) | -45.88% | -25.75% & -6.226% |
| `Cc1cnn(CC2CCCN2CC(=O)N(C)Cc2ccsc2)c1` (stereo not given) | 16.63% & 7.694% | 1.707% |
| `COc1ccc(NC(=O)Cn2c(=O)nc(N)c3cc(C)sc32)cc1` | 10.06% | -2.445% |
| `CC(C)n1cnnc1C1CCCN(S(=O)(=O)CCCC#N)C1` (stereo not given) | -30.3% | -30.2% |
| `CCC(CC)C(CNC(=O)Nc1cc(C)nn1C)N1CCOCC1` (stereo not given) | -1.404% | -5.313% |
| `[H][C@@]12CN(C(=O)NC3CC3)C[C@]1([H])C(=O)N(c1ccccc1)C2` | -17.2% | -13.67% |
| `CC(=O)Nc1nc(C(=O)N2CCCC(c3cc(C)[nH]n3)C2)cs1` (stereo not given) | 7.18% | -3.781% |
| `CCn1ncc(S(=O)(=O)N[C@@H]2CCC[C@@H](n3ccnc3)[C@@H]2O)c1C` | -12.04% | -0.1486% & -0.1648% |
| `O=C(O)C(F)(F)F.O=C(O)C(F)(F)F.[H][C@@]12CN(Cc3cccs3)C[C@]1([H])OCCN2c1ccc(C)nn1` | 7.962% | -21.6% |
| `Cc1ccc(C(C(=O)O)N(C)CCN2CCOCC2)c(F)c1` (stereo not given) | -6.691% | 1.447% & -18.9% |
| `Cc1nonc1OCCNC(=O)CCCc1ccc(Cl)cc1` | 11.12% & 3.003% | 12.86% |
| `Cc1ccc(-c2nc(CNC(C)Cn3cccn3)cs2)o1` (stereo not given) | 41.4% & 33.39% | 33.7% |
| `[H][C@]12CNC[C@@]1(C(=O)NCCc1ncccc1C)CN(S(C)(=O)=O)C2` | -7.292% | 6.113% |
| `CN1CCN(CCO)C(=O)C12CCN(c1nccs1)CC2` | 7.493% & -4.438% | 9.44% |
| `Cc1cccc(CO[C@H]2CO[C@@]3(CCN(S(=O)(=O)N(C)C)C3)C2)n1` | -7.288% & 6.147% | -15.28% |
| `CNS(=O)(=O)Cc1ccc(CNC(=O)c2ccccn2)cc1` | 17.41% | 9.571% |
| `Cc1ccccc1OCCCC(=O)NCc1ccnc(O)c1` | 2.091% & -59.19% | -20.95% |
| `CCS(=O)(=O)CC(C)N(C)C(=O)NCCc1cccc(F)c1F` (stereo not given) | 27.26% | 4.424% |
| `N#Cc1ccc(Nc2nc3c(s2)C(=O)CN(CC2CC2)C3)cc1` | -5.812% | -18.82% |
| `Cc1ccsc1C(=O)N1CCc2ncnc(NC(C)C)c2CC1` | 16.66% | -0.5246% |
| `NC(=O)COc1ccc(C(=O)N2CCCC(n3ccnc3)C2)cc1` (stereo not given) | -12.28% & -0.5516% | -2.665% |
| `CCN1CCN(C(=O)NCc2cccnc2-n2cccn2)CC1` | 8.212% | -12.8% |
| `CC(C)(C)OC(=O)N1CCN(C(=O)c2cnn3c2OCCC3)CC1` | 25.12% | 14.57% |
| `NCCn1nc(C2CCN(Cc3ccccc3)C2)c2nccnc21` (stereo not given) | 10.25% | 7.931% |
| `CC(C(=O)NC1CCCC1)S(=O)(=O)Cc1noc(C(C)(C)C)n1` (stereo not given) | -27.37% | -30.93% |
| `N#CCCCS(=O)(=O)N1CCCC1CC(=O)c1cccs1` (stereo not given) | 15.02% | 12.59% |
| `Cc1nc2c(Nc3ccc(C#N)cc3)nc(N)nc2n1C` | -5.087% | -13.51% |
| `COC(=O)Nc1ccc(CNc2cncc(-n3cccn3)n2)cc1` | 13.26% | -5.724% |
| `[H][C@]12CC[C@]([H])(CN(S(=O)(=O)N(C)C)C1)N(C(=O)c1cn(C)nc1C)C2` | -21.17% | -8.317% |
| `CC(=O)Nc1ccc2nc(-c3nccn3C[C@@H]3CCCO3)ccc2c1` | 32.3% | 6.953% |
| `Cn1cnc2ccc(NC(=O)CCCn3cccn3)cc2c1=O` | -2.406% | 1.362% |
| `O=C(O)C(F)(F)F.O=C(O)C(F)(F)F.O=C(c1ccncc1)N1CC2(CCNCC2)c2cc(Cl)ccc21` | -10.55% | 2.821% & -1.496% |
| `O=C(Nc1cccnc1N1CCCC1)C1CCS(=O)(=O)C1` (stereo not given) | 3.217% | -11.07% |
| `O=C(Cc1ccc2c(c1)CCC2)NCCNc1ncccn1` | 18.28% | 0.6959% |
| `CC(=O)Nc1cccc(C(=O)N2CCc3c(nc(N(C)C)[nH]c3=O)C2)c1` | -2.831% | -22.03% |
| `Cc1cc(N2CCN(c3nc4ccccc4cc3CO)CC2)nc(C)n1` | 23.94% | 12.91% |
| `O=C(c1ccncc1)N1Cc2ccccc2OC2(CCOCC2)C1` | 10.22% | -14.52% |
| `CN(Cc1ccsc1)C(=O)Nc1ccc(S(C)(=O)=O)nc1` | -3.352% | -6.321% |
| `Cc1nnc2n1CCN(C(=O)CN1C(=O)C(C)Oc3ccccc31)C2` (stereo not given) | -19.24% & -0.4808% | -16.29% |
| `Cn1ccnc1CN1CCC2(CC1)CC(N1CCCC1)c1ccccc12` (stereo not given) | 27.27% | 6.461% |
| `O=C(O)C(F)(F)F.[H][C@@]12CCN(S(C)(=O)=O)[C@]1([H])CC[C@@H](C(=O)NCCc1ccccn1)O2` | -0.8799% & 13.66% | 0.7339% |

6 of the entries, repeated:

- Cc1nonc1OCCNC(=O)CCCc1ccc(Cl)cc1 : Mtb glucose medium: 11.12% & 3.003%; Mtb cholesterol medium: 12.86%
- CC(C)n1cnnc1C1CCCN(S(=O)(=O)CCCC#N)C1 (stereo not given) : Mtb glucose medium: -30.3%; Mtb cholesterol medium: -30.2%
- Cc1cccc(CO[C@H]2CO[C@@]3(CCN(S(=O)(=O)N(C)C)C3)C2)n1 : Mtb glucose medium: -7.288% & 6.147%; Mtb cholesterol medium: -15.28%
- CC(=O)Nc1cccc(C(=O)N2CCc3c(nc(N(C)C)[nH]c3=O)C2)c1 : Mtb glucose medium: -2.831%; Mtb cholesterol medium: -22.03%
- CNS(=O)(=O)Cc1ccc(CNC(=O)c2ccccn2)cc1 : Mtb glucose medium: 17.41%; Mtb cholesterol medium: 9.571%
- O=C(O)C(F)(F)F.O=C(O)C(F)(F)F.O=C(c1ccncc1)N1CC2(CCNCC2)c2cc(Cl)ccc21 : Mtb glucose medium: -10.55%; Mtb cholesterol medium: 2.821% & -1.496%

Source: ChEMBL document CHEMBL3988442, “University of Dundee, Small-Polar-MMV Screening Library” (2021).